# Experimental data as given in paper PMC5414047.
# By UniProt entry, the sequences of proteins in these tests, tags left out.
# UniProt Q9UNN5: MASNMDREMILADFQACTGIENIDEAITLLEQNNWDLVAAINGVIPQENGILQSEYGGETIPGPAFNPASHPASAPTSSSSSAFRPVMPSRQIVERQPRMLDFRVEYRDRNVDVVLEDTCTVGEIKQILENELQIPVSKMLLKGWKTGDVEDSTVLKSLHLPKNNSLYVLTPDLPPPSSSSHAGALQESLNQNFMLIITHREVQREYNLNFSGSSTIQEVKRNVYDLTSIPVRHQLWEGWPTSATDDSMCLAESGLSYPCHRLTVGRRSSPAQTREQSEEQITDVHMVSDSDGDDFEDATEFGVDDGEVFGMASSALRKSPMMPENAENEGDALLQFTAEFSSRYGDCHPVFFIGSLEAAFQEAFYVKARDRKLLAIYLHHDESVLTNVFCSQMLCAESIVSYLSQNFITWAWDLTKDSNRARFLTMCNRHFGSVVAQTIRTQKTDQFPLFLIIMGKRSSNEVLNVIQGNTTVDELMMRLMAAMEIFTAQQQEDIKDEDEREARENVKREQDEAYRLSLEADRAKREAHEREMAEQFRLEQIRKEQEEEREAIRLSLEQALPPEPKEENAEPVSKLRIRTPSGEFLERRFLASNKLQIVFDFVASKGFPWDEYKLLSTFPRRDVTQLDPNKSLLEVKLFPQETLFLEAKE
# Molecular target: Flag-FAF1 wt (UniProt Q9UNN5)
# Test: affinity purification with mass spectrometry; anti-Flag-FAF1 immunoprecipitants; cell line not stated
binder,measurement,value
"SGT1A (protein, UniProt Q9Y2Z0-2 1-333) MAAAAAGTATSQRFFQSFSDALIDEDPQAALEELTKALEQKPDDAQYYCQRAYCHILLGNYCVAVADAKKSLELNPNNSTAMLRKGICEYHEKNYAAALETFTEGQKLDSADANFSVWIKRCQEAQNGSESEVWTHQSKIKYDWYQTESQVVITLMIKNVQKNDVNVEFSEKELSALVKLPSGEDYNLKLELLHPIIPEQSTFKVLSTKIEIKLKKPEAVRWEKLEGQGDVPTPKQFVADVKNLYPSSSPYTRNWDKLVGEIKEEEKNEKLEGDAALNRLFQQIYSDGSDEVKRAMNKSFMESGGTVLSTNWSDVGKRKVEINPPDDMEWKKY",binding,binds

# Results are given in words; binding and its absence hold for the method and conditions named. Binding seen in cells or lysates may run through a third protein. A yes stands for co-enrichment or nearness to the bait. Other partners may have been found.
